Experimental data: article PMC11438962
Results are given in words; binding and its absence hold for the method and conditions named. Binding seen in cells or lysates may run through a third protein. Some binding calls cover weakened binding; strength is not graded here.

Amino acid sequences for entries named in this document (tags omitted).
UniProt P09651: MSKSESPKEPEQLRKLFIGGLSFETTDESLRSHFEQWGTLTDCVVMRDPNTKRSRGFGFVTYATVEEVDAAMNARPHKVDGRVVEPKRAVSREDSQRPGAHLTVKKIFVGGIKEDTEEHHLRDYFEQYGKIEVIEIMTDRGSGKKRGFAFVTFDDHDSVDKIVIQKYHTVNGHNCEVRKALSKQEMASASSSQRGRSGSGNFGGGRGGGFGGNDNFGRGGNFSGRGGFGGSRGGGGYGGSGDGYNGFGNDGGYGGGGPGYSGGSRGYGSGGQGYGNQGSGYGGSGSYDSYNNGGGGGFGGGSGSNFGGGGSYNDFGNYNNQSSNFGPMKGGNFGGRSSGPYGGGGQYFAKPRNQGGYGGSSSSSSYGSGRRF
UniProt Q99873: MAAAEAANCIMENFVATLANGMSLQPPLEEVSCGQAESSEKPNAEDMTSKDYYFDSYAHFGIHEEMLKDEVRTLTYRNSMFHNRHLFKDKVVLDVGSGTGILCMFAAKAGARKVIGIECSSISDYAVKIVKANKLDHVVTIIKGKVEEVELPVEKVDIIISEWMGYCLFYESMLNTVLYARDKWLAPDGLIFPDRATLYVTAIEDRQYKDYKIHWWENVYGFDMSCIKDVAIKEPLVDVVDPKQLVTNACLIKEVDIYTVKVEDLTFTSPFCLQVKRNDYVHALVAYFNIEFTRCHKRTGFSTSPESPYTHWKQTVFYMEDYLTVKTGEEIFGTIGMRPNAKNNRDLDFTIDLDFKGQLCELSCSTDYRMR

Biological target: T7-tagged HNRNPA1 (HEK293T) (UniProt P09651)
Assay: co-IP; HEK293T cells co-expressing T7-tagged HNRNPA1 and one of nine GFP-tagged PRMT family members

- binding: binds
Substance: GFP-tagged PRMT1 (from UniProt Q99873 1-371) (enzyme)
